Measurements as given in the supplement of paper PMC6078165.
Values are relative to the signal before dosing, not to a vehicle control; the signal also falls without drug.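 Fibroblast labels denote human fibroblasts, mainly primary ones from uterus (C12385, HUF), lung (H6013), bone (Hs27A), adrenal (HADF) and skin (WS1), plus mammary HMF and breast cancer-associated Hs343T. Cancer cells are basal-like or mesenchymal-like triple-negative breast cancer lines. A hit is a response shift exceeding 3x replicate standard deviation. The tissue of the other fibroblasts is not given here.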

Test system: HCC1143
Experiment: relative JC-1 red fluorescence (viability) vs pre-drug, coculture with fibroblast (fraction); higher = more viable cancer cells
Protocol: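 JC-1 labelled TNBC cells cocultured 1:1 (1,500 cells each) with CellTrace Violet stained primary or stromal fibroblasts in 384-well plates in FluoroBrite medium, treated with one of 42 anticancer drugs at 0.1, 1, 10 or 100 uM. JC-1 red fluorescence (mitochondrial integrity in cancer cells only) was read by plate reader every 8 h for 72 h. Values are normalised to each well's pre-drug value. The stock of one drug was tenfold lower, so its dose labels may be too high.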

CC[C@]1(O)C[C@H]2CN(CCc3c([nH]c4ccccc34)[C@@](C(=O)OC)(c3cc4c(cc3OC)N(C=O)[C@H]3[C@@](O)(C(=O)OC)[C@H](OC(C)=O)[C@]5(CC)C=CCN6CC[C@]43[C@@H]65)C2)C1 [Vincristine]
relative JC-1 red fluorescence
Details | 8 h | 16 h | 24 h | 32 h | 40 h | 48 h | 56 h | 64 h | 72 h
0.1 µM, coculture fibroblast: C12385 | 0.801 | 0.741 | 0.713 | 0.667 | 0.637 | 0.644 | 0.638 | 0.631 | 0.648
0.1 µM, coculture fibroblast: H6013 | 0.822 | 0.793 | 0.771 | 0.77 | 0.751 | 0.769 | 0.764 | 0.775 | 0.739
0.1 µM, coculture fibroblast: H6019 | 0.809 | 0.758 | 0.76301 | 0.722 | 0.708 | 0.726 | 0.707 | 0.706 | 0.698
0.1 µM, coculture fibroblast: H6076 | 0.807 | 0.795 | 0.755 | 0.7278 | 0.697 | 0.691 | 0.671 | 0.655 | 0.679
0.1 µM, coculture fibroblast: H6231 | 0.784 | 0.763 | 0.7 | 0.621 | 0.609 | 0.582 | 0.539 | 0.515 | 0.509
0.1 µM, coculture fibroblast: HADF | 0.795 | 0.763 | 0.736 | 0.734 | 0.668 | 0.659 | 0.635 | 0.63 | 0.598
0.1 µM, coculture fibroblast: HCFa | 0.804 | 0.736 | 0.707 | 0.699 | 0.612 | 0.595 | 0.557 | 0.532 | 0.505
0.1 µM, coculture fibroblast: HCPF | 0.792 | 0.841 | 0.771 | 0.67 | 0.686 | 0.657 | 0.624 | 0.588 | 0.579
0.1 µM, coculture fibroblast: HHSteC | 0.862 | 0.82 | 0.797 | 0.766 | 0.698 | 0.684 | 0.65 | 0.629 | 0.584
0.1 µM, coculture fibroblast: HMF | 0.8 | 0.831 | 0.74099 | 0.6662 | 0.6454 | 0.614 | 0.581 | 0.555 | 0.542
0.1 µM, coculture fibroblast: HPFa | 0.89 | 0.795 | 0.761 | 0.6734 | 0.605 | 0.594 | 0.569 | 0.554 | 0.544
0.1 µM, coculture fibroblast: HUF | 0.8528 | 0.7819 | 0.724 | 0.65883 | 0.6029 | 0.59055 | 0.556 | 0.541 | 0.523
0.1 µM, coculture fibroblast: Hs5 | 0.854 | 0.838 | 0.7937 | 0.8014 | 0.722 | 0.7019 | 0.6826 | 0.666 | 0.68317
0.1 µM, coculture fibroblast: Hs27A | 0.716 | 0.661 | 0.636 | 0.669 | 0.55 | 0.548 | 0.527 | 0.5212 | 0.5281
0.1 µM, coculture fibroblast: Hs343T | 0.825 | 0.835 | 0.782 | 0.716 | 0.701 | 0.672 | 0.634 | 0.621 | 0.599
0.1 µM, coculture fibroblast: WS1 | 0.802 | 0.736 | 0.692 | 0.618 | 0.574 | 0.558 | 0.526 | 0.527 | 0.528
1 µM, coculture fibroblast: C12385 | 0.845 | 0.765 | 0.6874 | 0.63817 | 0.571 | 0.536 | 0.5 | 0.469 | 0.449
1 µM, coculture fibroblast: H6013 | 0.7935 | 0.723 | 0.691 | 0.689 | 0.615 | 0.601 | 0.574 | 0.562 | 0.566
1 µM, coculture fibroblast: H6019 | 0.83 | 0.774 | 0.741 | 0.688 | 0.664 | 0.657 | 0.632 | 0.614 | 0.597
1 µM, coculture fibroblast: H6076 | 0.813 | 0.809 | 0.751 | 0.717 | 0.6712 | 0.668 | 0.655 | 0.641 | 0.657
1 µM, coculture fibroblast: H6231 | 0.8142 | 0.815 | 0.706 | 0.579 | 0.606 | 0.572 | 0.525 | 0.494 | 0.474
1 µM, coculture fibroblast: HADF | 0.745 | 0.6706 | 0.6261 | 0.615 | 0.527 | 0.497 | 0.464 | 0.447 | 0.437
1 µM, coculture fibroblast: HCFa | 0.772 | 0.68 | 0.616 | 0.587 | 0.489 | 0.448 | 0.411 | 0.38 | 0.387
1 µM, coculture fibroblast: HCPF | 0.829 | 0.843 | 0.781 | 0.679 | 0.698 | 0.664 | 0.631 | 0.605 | 0.601
1 µM, coculture fibroblast: HHSteC | 0.81 | 0.735 | 0.691 | 0.653 | 0.583 | 0.55 | 0.508 | 0.484 | 0.453
1 µM, coculture fibroblast: HMF | 0.795 | 0.839 | 0.7508 | 0.656 | 0.662 | 0.629 | 0.586 | 0.56 | 0.539
1 µM, coculture fibroblast: HPFa | 0.9412 | 0.8499 | 0.824 | 0.741 | 0.663 | 0.632 | 0.5732 | 0.551 | 0.5308
1 µM, coculture fibroblast: HUF | 0.892 | 0.8216 | 0.756 | 0.68 | 0.636 | 0.607 | 0.567 | 0.536 | 0.512
1 µM, coculture fibroblast: Hs5 | 0.84 | 0.868 | 0.795 | 0.753 | 0.6999 | 0.6701 | 0.6427 | 0.61709 | 0.6089
1 µM, coculture fibroblast: Hs27A | 0.748 | 0.677 | 0.628 | 0.659 | 0.5468 | 0.533 | 0.501 | 0.486 | 0.48
1 µM, coculture fibroblast: Hs343T | 0.80759 | 0.838 | 0.743 | 0.6576 | 0.645 | 0.606 | 0.561 | 0.546 | 0.523
1 µM, coculture fibroblast: WS1 | 0.851 | 0.77 | 0.7136 | 0.642 | 0.593 | 0.553 | 0.52 | 0.493 | 0.476
